Article PMC5805695
Results are given in words; binding and its absence hold for the method and conditions named. Binding seen in cells or lysates may run through a third protein.

By UniProt entry, the sequences of proteins in these tests, tags left out.
UniProt Q9Y7M4: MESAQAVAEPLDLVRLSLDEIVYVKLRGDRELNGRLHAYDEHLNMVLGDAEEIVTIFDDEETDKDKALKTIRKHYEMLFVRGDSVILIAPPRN

Molecular target: T1, Pof8-∆[289–402] (C-terminal truncation removing the entire xRRM domain) (S. pombe) (UniProt O13795)
T1 sequence: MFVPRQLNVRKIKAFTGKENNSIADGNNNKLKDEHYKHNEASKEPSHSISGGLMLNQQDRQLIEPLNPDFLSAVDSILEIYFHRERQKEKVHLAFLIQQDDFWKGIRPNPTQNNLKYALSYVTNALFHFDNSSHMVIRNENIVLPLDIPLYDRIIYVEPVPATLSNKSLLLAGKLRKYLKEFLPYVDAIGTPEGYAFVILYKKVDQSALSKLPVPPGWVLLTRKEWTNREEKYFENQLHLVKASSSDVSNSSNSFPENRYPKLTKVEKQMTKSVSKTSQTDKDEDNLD
Experiment: co-IP; S. pombe cell lysates (50 mM Tris pH 8.0, 150 mM NaCl, 10% glycerol, 5 mM EDTA, 0.5% NP-40); immunoprecipitation with monoclonal anti-myc 9B11 and Dynabeads Protein G; western blot with anti-myc or anti-V5/PK; also mock treatment without RNase A

binding: no binding
Substance: Lsm3 (subunit of the Lsm2-8 complex) (from UniProt Q9Y7M4 1-93)
